Reference: patent publication US20150191735
Substitutions are numbered along the chain they refer to. Protein sequences can lack the tags named with them.

Tests used:
Experiment in all cases: activity in cells
[1] = molecular target: T1, R6K Rep protein pi P42L-P106L-F107S (Plasmid R6K (E. coli)) (UniProt P03067); settings: NTC9685R-EGFP, NTC711231, RF359, 42 C induction
T1 sequence: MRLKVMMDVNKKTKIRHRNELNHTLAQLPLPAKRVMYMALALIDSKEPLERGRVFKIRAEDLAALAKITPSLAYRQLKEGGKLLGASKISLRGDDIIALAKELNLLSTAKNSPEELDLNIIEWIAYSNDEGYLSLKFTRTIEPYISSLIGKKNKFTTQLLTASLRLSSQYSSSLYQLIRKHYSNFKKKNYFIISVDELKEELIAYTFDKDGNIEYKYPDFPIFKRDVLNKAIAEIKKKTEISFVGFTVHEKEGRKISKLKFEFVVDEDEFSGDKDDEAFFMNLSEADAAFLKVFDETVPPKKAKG

[2] = molecular target: T2, R6K Rep protein pi P42L-P113S (Plasmid R6K (E. coli)) (UniProt P03067); settings: NTC9685R-EGFP, NTC640722, RF305, 37 C
T2 sequence: T1 sequence with L106P, S107F, P113S

[3] = test system: T3, ColE2-P9 Rep protein wild type (Plasmid ColE2-P9 (E. coli)); settings: NTC9385C-Luc, NTC641711, LB 37 C, G194D mutant gives 0.9, only the site is given
T3 sequence: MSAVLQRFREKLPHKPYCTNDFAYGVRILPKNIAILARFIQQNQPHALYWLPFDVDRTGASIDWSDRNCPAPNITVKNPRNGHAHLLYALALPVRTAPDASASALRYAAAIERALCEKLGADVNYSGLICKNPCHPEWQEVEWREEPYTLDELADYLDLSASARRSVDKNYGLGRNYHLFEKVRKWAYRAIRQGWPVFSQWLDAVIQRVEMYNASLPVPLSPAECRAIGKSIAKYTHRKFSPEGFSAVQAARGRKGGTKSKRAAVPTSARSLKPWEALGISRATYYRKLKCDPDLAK

Row | Sequence | activity on this sequence (mg plasmid/L/OD600) [1] | activity on this sequence (mg plasmid/L/OD600) [2] | activity on this sequence (mg plasmid/L/OD600) [3]
1 | GGCTTGTTGTCCACAACCGTTAAACCTTAAAAGCTTTAAAAGCCTTATATATTCTTTTTTTTCTTATAAAACTTAAAACCTTAGAGGCTATTTAAGTTGCTGATTTATATTAATTTTATTGTTCAAACATGAGAGCTTAGTACGTGAAACATGAGAGCTTAGTACGTTAGCCATGAGAGCTTAGTACGTTAGCCATGAGGGTTTAGTTCGTTAAACATGAGAGCTTAGTACGTTAAACATGAGAGCTTAGTACGTACTATCAACAGGTTGAACTGCTGATC (double strand) [R6K gamma origin (minimal)] | 8.5 | 3.6 | 
2 | CAAAAGGGCGCTGTTATCTGATAAGGCTTATCTGGTCTCATTTTG (double strand) [ColE2 origin (+7)] |  |  | 0.4
